How the values were obtained:
[1] = tested on: human-induced pluripotent stem cell-cardiomyocytes (hiPSC-CMs); test: Drug screening for hiPSC-CMs on bare and embedded PDMS; type: cell-based
Experimental: Since pre-clinical studies on rats could not completely predict effects on the human heart, human-induced pluripotent stem cell-cardiomyocytes (hiPSC-CMs) had significant advantages over the use of animal models. To further investigate the responses of different drugs on immature and mature cardiomyocytes in human cells, hiPSC-CMs were cultured.

cardiomyocytes = test: Drug screening on bare and embedded PDMS cantilevers (beat displacement)
[2] = tested on: neonatal rat ventricular myocytes (NRVMs); test: Comparison of NRVM and hiPSC-CM in drug test (NRVM); type: cell-based
Text: (§1) There are several similarities and differences in the drug response between animal and human cardiomyocytes.

[3] = tested on: human-induced pluripotent stem cell-cardiomyocytes (hiPSC-CMs); test: Comparison of NRVM and hiPSC-CM in drug test (hiPSC-CM); type: cell-based; settings: human cells
Text: as §1

SMILES: Cc1cccc(CCN2CCC(C(=O)c3ccc(NS(C)(=O)=O)cc3)CC2)n1 [E-4031]
- beat behavior with increasing dose ([1]; hiPSC-CMs on bare PDMS): irregular beat behavior
- contraction behavior at high concentration of drug ([1]; hiPSC-CMs on embedded PDMS): stable contraction behavior
- effect on contraction force and beating cycle (cardiomyocytes; bare PDMS as control): a decrease in contraction force, and the beating cycle was irregularly changed as the drug dose increased
- effect on contraction force and beating cycle (cardiomyocytes; cultured on AgNW-embedded PDMS): little change in the beating cycle, and the magnitude of contraction force was not significantly affected
- tendency of beat frequency and contraction with increasing drug ([2]; animal cells): decrease the beat frequency
- change of contraction force / displacement ([2]; animal experiment, (b) of FIG. 20C): reduction of contraction force was observed
- tendency of beat frequency and contraction with increasing drug [3]: decrease the beat frequency
- change of contraction force / displacement ([3]; (b) of FIG. 20C): change in displacement was not observed
